# From paper PMC10936166
# Results are given in words; binding and its absence hold for the method and conditions named. In cells and extracts the contact can be indirect. Tags and fused reporters may be left off the sequences shown.
# Target: T1, C-terminal HA-tagged GRA6 (mature, without signal peptide) (Toxoplasma gondii) (UniProt Q27003)
# T1 sequence: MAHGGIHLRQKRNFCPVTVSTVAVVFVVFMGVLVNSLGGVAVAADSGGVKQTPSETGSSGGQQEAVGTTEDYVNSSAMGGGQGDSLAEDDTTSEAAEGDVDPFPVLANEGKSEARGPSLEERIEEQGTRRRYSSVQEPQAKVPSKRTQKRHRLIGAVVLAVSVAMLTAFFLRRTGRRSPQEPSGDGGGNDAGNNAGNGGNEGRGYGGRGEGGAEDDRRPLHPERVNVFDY
# Assay: co-IP; HEK293T co-transfected with FLAG-ITCH (full-length or truncated) and HA-tagged GRA constructs; lysis in IP-lysis buffer B (25 mM HEPES, 150 mM NaCl, 1 mM EDTA, 1 mM EGTA, 0.65% NP40); anti-HA magnetic beads, 4°C overnight; immunoblotting
substance,measurement,value
"FLAG-tagged rat ITCH (FLAG-rITCH), full-length (enzyme)",binding,no binding
